Measurements as given in paper PMC8790522.
These are yes or no findings as the source states them, for the method shown. Binding seen in cells or lysates may run through a third protein. Some binding calls cover weakened binding; strength is not graded here.

The chains behind the UniProt entries cited, without tags or fusion partners.
UniProt Q04695: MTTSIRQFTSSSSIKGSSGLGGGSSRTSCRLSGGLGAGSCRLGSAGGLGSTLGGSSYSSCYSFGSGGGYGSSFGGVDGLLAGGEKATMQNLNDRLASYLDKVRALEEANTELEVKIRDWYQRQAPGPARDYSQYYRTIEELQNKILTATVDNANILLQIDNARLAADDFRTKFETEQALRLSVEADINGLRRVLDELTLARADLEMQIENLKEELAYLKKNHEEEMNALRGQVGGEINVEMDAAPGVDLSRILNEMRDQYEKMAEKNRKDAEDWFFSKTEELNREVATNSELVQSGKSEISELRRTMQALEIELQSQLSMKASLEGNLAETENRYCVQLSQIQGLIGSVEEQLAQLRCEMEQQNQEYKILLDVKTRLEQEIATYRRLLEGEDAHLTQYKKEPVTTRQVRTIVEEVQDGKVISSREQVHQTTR
UniProt P37231: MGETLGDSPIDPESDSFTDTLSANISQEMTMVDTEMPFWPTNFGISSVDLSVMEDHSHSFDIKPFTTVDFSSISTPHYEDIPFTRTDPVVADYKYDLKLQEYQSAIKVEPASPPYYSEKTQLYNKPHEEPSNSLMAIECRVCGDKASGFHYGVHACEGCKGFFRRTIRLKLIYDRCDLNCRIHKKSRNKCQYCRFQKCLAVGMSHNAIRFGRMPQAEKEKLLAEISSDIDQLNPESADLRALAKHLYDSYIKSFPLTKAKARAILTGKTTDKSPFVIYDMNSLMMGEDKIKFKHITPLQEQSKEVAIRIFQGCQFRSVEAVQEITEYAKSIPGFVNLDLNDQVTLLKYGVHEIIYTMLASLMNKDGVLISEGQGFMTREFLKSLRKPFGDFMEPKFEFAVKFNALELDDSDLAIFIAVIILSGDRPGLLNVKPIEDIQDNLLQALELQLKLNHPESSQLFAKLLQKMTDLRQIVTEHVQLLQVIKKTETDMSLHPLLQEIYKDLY

Target: Keratin 17 (human (endogenous in HaCaT)) (UniProt Q04695)
Test: co-IP; whole-cell lysates of treated HaCaT cells incubated with anti-K17 (sc-393002) or anti-IgG antibody for 3 h, then with Protein A/G PLUS-Agarose at 4°C overnight; four PBS washes; SREBP-1 and PPARγ detected by Western blot

Q: How did the binding turn out when “Peroxisome proliferator-activated receptor gamma (from UniProt P37231 1-505)” was run?
A: binds
